These are yes or no findings as the source states them, for the method shown. In cells and extracts the contact can be indirect. Some entries that bind do so weakly or less than the wild type. For some assays here: Where a sequence is shown, tags or fusion partners need not be part of it.
T1: endogenous CARF (human (endogenous in HEK293)) (UniProt Q9NXV6)
T1 sequence: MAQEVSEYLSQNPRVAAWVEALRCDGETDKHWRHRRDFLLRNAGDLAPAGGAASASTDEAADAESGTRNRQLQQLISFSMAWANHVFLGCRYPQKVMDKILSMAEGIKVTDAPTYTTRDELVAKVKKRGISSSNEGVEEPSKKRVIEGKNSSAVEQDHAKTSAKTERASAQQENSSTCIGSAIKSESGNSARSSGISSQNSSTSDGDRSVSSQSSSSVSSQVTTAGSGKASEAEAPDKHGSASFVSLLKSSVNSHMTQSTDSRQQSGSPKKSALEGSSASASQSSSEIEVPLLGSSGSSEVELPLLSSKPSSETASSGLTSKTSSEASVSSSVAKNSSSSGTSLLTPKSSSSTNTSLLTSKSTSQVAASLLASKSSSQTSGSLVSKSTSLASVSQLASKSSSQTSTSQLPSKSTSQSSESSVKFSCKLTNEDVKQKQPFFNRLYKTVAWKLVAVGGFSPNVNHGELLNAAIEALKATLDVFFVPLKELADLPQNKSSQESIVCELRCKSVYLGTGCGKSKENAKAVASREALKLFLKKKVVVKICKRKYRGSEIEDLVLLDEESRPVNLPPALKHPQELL

Chains of the proteins cited; added tags and fusions are not shown.
UniProt P35222: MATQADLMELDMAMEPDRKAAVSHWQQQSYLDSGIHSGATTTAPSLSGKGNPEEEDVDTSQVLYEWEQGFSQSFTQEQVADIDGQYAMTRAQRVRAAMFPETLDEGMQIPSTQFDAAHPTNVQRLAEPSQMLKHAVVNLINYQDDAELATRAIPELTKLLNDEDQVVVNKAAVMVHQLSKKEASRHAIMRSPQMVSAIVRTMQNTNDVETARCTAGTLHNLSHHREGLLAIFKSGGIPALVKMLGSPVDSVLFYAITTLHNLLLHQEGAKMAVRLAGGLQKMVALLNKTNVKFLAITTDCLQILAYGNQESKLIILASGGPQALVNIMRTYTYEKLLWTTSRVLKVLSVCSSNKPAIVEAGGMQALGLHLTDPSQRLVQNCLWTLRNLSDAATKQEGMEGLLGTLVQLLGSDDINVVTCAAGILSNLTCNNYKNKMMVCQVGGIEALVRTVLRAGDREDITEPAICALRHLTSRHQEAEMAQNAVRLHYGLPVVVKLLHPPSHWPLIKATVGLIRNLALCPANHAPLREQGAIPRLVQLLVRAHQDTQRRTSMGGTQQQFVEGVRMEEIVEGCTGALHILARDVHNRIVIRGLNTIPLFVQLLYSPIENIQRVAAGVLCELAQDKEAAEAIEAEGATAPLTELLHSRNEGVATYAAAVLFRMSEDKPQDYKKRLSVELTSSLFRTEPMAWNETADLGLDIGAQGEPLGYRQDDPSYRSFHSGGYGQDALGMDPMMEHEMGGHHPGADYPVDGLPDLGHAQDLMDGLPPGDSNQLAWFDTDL

T2: GST-hCARF (human) (UniProt Q9NXV6)
T2 sequence: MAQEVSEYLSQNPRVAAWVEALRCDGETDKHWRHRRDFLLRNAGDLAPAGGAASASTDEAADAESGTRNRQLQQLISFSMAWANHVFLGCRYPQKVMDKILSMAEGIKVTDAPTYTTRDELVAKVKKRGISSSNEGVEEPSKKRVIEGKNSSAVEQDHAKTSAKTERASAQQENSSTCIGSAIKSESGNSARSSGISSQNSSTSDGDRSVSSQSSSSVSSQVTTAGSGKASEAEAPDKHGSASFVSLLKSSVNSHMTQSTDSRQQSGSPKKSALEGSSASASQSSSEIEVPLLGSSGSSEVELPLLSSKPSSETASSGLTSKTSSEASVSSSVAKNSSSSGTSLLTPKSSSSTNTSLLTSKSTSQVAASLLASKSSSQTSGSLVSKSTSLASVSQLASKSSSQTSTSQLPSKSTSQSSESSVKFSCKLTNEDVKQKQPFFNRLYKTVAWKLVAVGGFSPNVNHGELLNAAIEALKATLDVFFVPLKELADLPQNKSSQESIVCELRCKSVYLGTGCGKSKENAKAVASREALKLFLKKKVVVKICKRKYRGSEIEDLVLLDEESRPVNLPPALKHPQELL


Assays:
[1] = target: T1, endogenous CARF (human (endogenous in HEK293)); test: co-IP; endogenous Co-IP, cells with or without Wnt stimulation (Supplementary Figure S6D); cells and IP antibody not shown
GST-hCARF (human) = target: T2, GST-hCARF (human); test: pull-down; GST-hCARF purified on glutathione beads mixed with E. coli lysate of His6-mDvl1 plus DMSO for 2 h; beads washed 3 times; western blot; only the target purified

Molecule | binding [1] | binding (GST-hCARF (human))
endogenous β-catenin (from UniProt P35222 1-781) | binds | –
His6-tagged mDvl1 (protein, UniProt P51141 1-695) MAETKIIYHMDEEETPYLVKLPVAPERVTLADFKNVLSNRPVHAYKFFFKSMDQDFGVVKEEIFDDNAKLPCFNGRVVSWLVLAEGAHSDAGSQGTDSHTDLPPPLERTGGIGDSRPPSFHPNVASSRDGMDNETGTESMVSHRRERARRRNRDEAARTNGHPRGDRRRDLGLPPDSASTVLSSELESSSFIDSDEEDNTSRLSSSTEQSTSSRLVRKHKCRRRKQRLRQTDRASSFSSITDSTMSLNIITVTLNMERHHFLGISIVGQSNDRGDGGIYIGSIMKGGAVAADGRIEPGDMLLQVNDVNFENMSNDDAVRVLREIVSQTGPISLTVAKCWDPTPRSYFTIPRADPVRPIDPAAWLSHTAALTGALPRYGTSPCSSAITRTSSSSLTSSVPGAPQLEEAPLTVKSDMSAIVRVMQLPDSGLEIRDRMWLKITIANAVIGADVVDWLYTHVEGFKERREARKYASSMLKHGFLRHTVNKITFSEQCYYVFGDLCSNLASLNLNSGSSGASDQDTLAPLPHPSVPWPLGQGYPYQYPGPPPCFPPAYQDPGFSCGSGSAGSQQSEGSKSSGSTRSSHRTPGREERRATGAGGSGSESDHTVPSGSGSTGWWERPVSQLSRGSSPRSQASAVAPGLPPLHPLTKAYAVVGGPPGGPPVRELAAVPPELTGSRQSFQKAMGNPCEFFVDIM | – | binds

— paper PMC5387711 (Cell Discovery, 2017)
